# Over roughly 33,000 sequences, “E-score (-0.5 to 0.5)” has its median near -0.0059; the highest 2% begin near 0.26. The list shows a part of the results.
# Molecular target: T1, Cin5 (UniProt P40917)
# T1 sequence: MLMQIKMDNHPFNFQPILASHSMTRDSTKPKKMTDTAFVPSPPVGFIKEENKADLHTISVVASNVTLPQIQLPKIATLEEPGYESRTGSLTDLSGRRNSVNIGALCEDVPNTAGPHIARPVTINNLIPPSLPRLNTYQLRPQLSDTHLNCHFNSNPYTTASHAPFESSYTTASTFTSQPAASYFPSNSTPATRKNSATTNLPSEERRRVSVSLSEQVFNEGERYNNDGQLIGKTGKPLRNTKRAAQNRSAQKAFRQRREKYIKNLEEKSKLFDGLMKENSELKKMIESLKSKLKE
# Assay: PBM E-score (8-mer binding enrichment) (E-score (-0.5 to 0.5)); higher = stronger / more preferred TF binding
# Conditions: protein concentration: 100 nM; construct: GST-full length
# Procedure, shortened: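 GST-tagged yeast TFs (full-length or DNA-binding domain) were made by PURExpress in vitro transcription/translation and applied at about 100-200 nM to universal all-10-mer Agilent arrays. The arrays were made double-stranded by primer extension, on fresh or once-stripped slides. Bound protein was detected with fluorescent anti-GST, and scans were normalised with masliner. Each ungapped eight-base word, pooled with its reverse complement, received an E-score (modified Wilcoxon-Mann-Whitney statistic) from the Universal PBM Analysis Suite.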
row,Sequence,PBM E-score
1,GCTTCGGA,-0.00651
2,CAAGTTCA,0.202
3,GATTATGA,0.291
4,CTGCAGAA,0.0919
5,CCGTTCGA,0.0174
6,CGCGGCTC,0.0421
7,CATGGCGG,-0.0455
8,ATACAGAA,0.158
9,CCGTGGCG,-0.165
10,CCTTAAAG,-0.108
11,AGCTGGTG,-0.0421
12,CATTTAGG,-0.185
13,CCAAATAC,-0.0406
14,ACAACACT,0.176
15,ACGCCGTA,-0.0821
16,GGATGTTA,0.123
17,CTTGCAGA,-0.0335
18,CTCGGAAA,0.115
19,GTCGCGGA,-0.118
20,AGGGGTAT,-0.00308
21,CTATAATA,0.114
22,CAAGCATA,0.117
23,GCATAGGC,-0.109
24,CACATCCA,0.0527
25,AACATAGC,0.0812

row,Sequence,PBM E-score
1,CGATAGCG,0.0741
2,ACTAAATA,0.181
3,CCAGCGGA,-0.278
4,ACGCATGC,0.118
5,CCCTCTTA,-0.0202
6,AAGGCTTG,-0.0768
7,CAACGTAC,-0.00344
8,CTCTCACC,-0.038
9,CGACATCG,-0.167
10,GTTATCTA,0.131
11,ACAGCCCT,-0.343
12,GACCAGCA,0.0449
13,AACACCGT,-0.138
14,TCCTTGAA,-0.126
15,AGGGTTCG,-0.169
16,TATTGACA,0.0175
17,CCAGGTCC,-0.297
18,ACGGATAT,0.128
19,CTGCGGAA,-0.0698
20,AGCGCGAA,0.211
21,GATATTCA,0.0685
22,AATTAGCT,0.0688
23,GCCCCCCC,-0.384
24,GAATCCAA,0.0873
25,GACGGGAC,-0.176

row,Sequence,PBM E-score
1,ACCCAGTG,-0.175
2,AAGGAAAC,-0.00746
3,ACACACTA,0.15
4,AATGCATT,0.259
5,ATCCAACG,-0.161
6,CAGGTTAC,0.0316
7,AACCATGA,0.206
8,CGGAGAGA,0.0648
9,TAGCGATA,0.137
10,AGGCGAAA,-0.0123
11,CAGGATGG,-0.109
12,CGGGCGAA,0.0521
13,GGGCGAAC,0.103
14,GTCGGTTA,-0.00349
15,CATCTTCC,0.138
16,ACCGTCGT,0.0964
17,ACATTGGC,-0.0322
18,CACCGGAC,-0.146
19,CTGGGCTA,0.0109
20,CTATTTCA,0.192
21,AGCGACGG,-0.0627
22,ACGAGCAG,0.0391
23,CGCCAGGA,-0.0898
24,AAATCATA,0.198
25,AAGCGAAC,0.166

row,Sequence,PBM E-score
1,CGCGCTCA,0.0166
2,ATACGACC,-0.159
3,ATCAACTA,0.181
4,ACATACCC,0.0456
5,GCAAAGGA,0.142
6,ATATTCCC,0.096
7,GAATTGCC,-0.0572
8,AAAGCAGA,0.178
9,GACCAACC,-0.125
10,CAAGAGGA,-0.0705
11,CGCCAGCG,-0.226
12,ACATGATC,0.129
13,TTGTGAAA,0.0231
14,AAGGTTTA,-0.134
15,CACCCTGC,-0.122
16,ACGGAAGC,-0.0136
17,TACCTCAA,-0.028
18,GCATTCCC,-0.00639
19,AAGGGTCA,-0.0987
20,ATCTTCTA,0.0464
21,CATAAATC,0.254
22,GATTTGGA,0.0797
23,GAGTAACA,0.145
24,ATTATGCA,0.118
25,AAAGCATG,-0.0464

row,Sequence,PBM E-score
1,CCGGGAAA,-0.104
2,GGGAGGGA,0.014
3,GCTCTCCC,-0.233
4,AAAATATT,0.243
5,AATGGGGC,-0.152
6,AGTGGACC,-0.231
7,ATGTCCGA,-0.0572
8,CATTAAAC,0.0264
9,CGATTTAA,0.0596
10,CTGTAACC,0.119
11,CAGGGATG,-0.104
12,ACGATACC,0.106
13,AAGCAGAT,0.128
14,CGTGTCTC,-0.147
15,ATGTCACC,0.133
16,CGTACACA,-0.014
17,TGCGATAA,0.177
18,TGCAAACA,-0.135
19,ACTAGGCG,0.127
20,CGAATCGA,0.247
21,CGTTGCTC,0.0247
22,ATCCCGCG,0.258
23,GTTGTAGA,-0.112
24,CGAAAAGA,0.234
25,ATGTAGAA,0.0813

row,Sequence,PBM E-score
1,AAATCGCC,0.0475
2,CACAGTTA,0.173
3,CAATCAAG,-0.0309
4,ATGAGTTG,0.113
5,GGGAGCTA,-0.259
6,CGTACGCC,-0.112
7,ATAAGGCA,0.0574
8,CTCGTGGA,-0.0459
9,GAGCGTGA,-0.108
10,GAATGTCC,0.00316
11,AAGGATCA,0.0888
12,AACTTTAA,0.134
13,TAGCTGGA,-0.225
14,ATGAAGAC,-0.0169
15,GAAAGCCA,-0.134
16,CTGTCACA,-0.136
17,AAAAATTA,0.227
18,ATGCGTGC,0.0188
19,CACATGTG,-0.00999
20,CATCAACA,0.226
21,AGACTGGA,-0.0392
22,AATGTCCG,0.0421
23,TGAGCTCA,0.128
24,CCTGGCTA,-0.103
25,CACAAGGC,-0.157

# Reformatted: entries from further up
row	Sequence	PBM E-score
5	AATGGGGC	-0.152
6	AGTGGACC	-0.231
7	ATGTCCGA	-0.0572
8	CATTAAAC	0.0264
9	CGATTTAA	0.0596
10	CTGTAACC	0.119
11	CAGGGATG	-0.104
12	ACGATACC	0.106
13	AAGCAGAT	0.128
14	CGTGTCTC	-0.147
15	ATGTCACC	0.133
16	CGTACACA	-0.014
17	TGCGATAA	0.177
18	TGCAAACA	-0.135
19	ACTAGGCG	0.127
20	CGAATCGA	0.247
21	CGTTGCTC	0.0247
22	ATCCCGCG	0.258
23	GTTGTAGA	-0.112
24	CGAAAAGA	0.234
25	ATGTAGAA	0.0813
1	AAATCGCC	0.0475
2	CACAGTTA	0.173
3	CAATCAAG	-0.0309
4	ATGAGTTG	0.113
5	GGGAGCTA	-0.259
6	CGTACGCC	-0.112
7	ATAAGGCA	0.0574
8	CTCGTGGA	-0.0459
9	GAGCGTGA	-0.108
10	GAATGTCC	0.00316
11	AAGGATCA	0.0888
12	AACTTTAA	0.134
13	TAGCTGGA	-0.225
14	ATGAAGAC	-0.0169
15	GAAAGCCA	-0.134
16	CTGTCACA	-0.136
17	AAAAATTA	0.227
18	ATGCGTGC	0.0188
19	CACATGTG	-0.00999
20	CATCAACA	0.226
21	AGACTGGA	-0.0392
22	AATGTCCG	0.0421
23	TGAGCTCA	0.128
24	CCTGGCTA	-0.103
25	CACAAGGC	-0.157

# Continued:

row,Sequence,PBM E-score
1,CAGGAGTC,-0.0298
2,AGTTACTG,-0.0614
3,CCCTCAGG,-0.164
4,ATGATGTC,0.233
5,ACTGAAAT,0.0721
6,AGAAATGG,0.087
7,CGATCCGC,-0.0224
8,ACTCGGGA,0.0269
9,AGTATTAC,0.27
10,AACGTGGC,-0.0505
11,CACAGAGA,0.116
12,AAGCCCAA,0.0997
13,CAATCTAG,0.063
14,CAACCGGA,0.0554
15,CGGTAAAA,0.129
16,GACCTGCC,-0.158
17,CCTTCCTC,-0.257
18,CACTAACG,-0.146
19,GCGTGACC,-0.225
20,GAATATTC,0.265
21,AAACTTAA,0.151
22,CCCGTTCC,0.0137

# From the supplement of paper PMC3334620
